Laboratory results taken from patent US8193377B2, “(−)-epigallocatechin gallate derivatives for inhibiting proteasome” (The Hong Kong Polytechnic University, priority 2004, dated 2012).
Some of these results come from one statement about several compounds together.

Protein sequences, listed by entry. Tags and fused reporters are not part of them. Lines headed by an entry give the natural chain unless they say otherwise; changes in a name come on top.
UniProt P28074: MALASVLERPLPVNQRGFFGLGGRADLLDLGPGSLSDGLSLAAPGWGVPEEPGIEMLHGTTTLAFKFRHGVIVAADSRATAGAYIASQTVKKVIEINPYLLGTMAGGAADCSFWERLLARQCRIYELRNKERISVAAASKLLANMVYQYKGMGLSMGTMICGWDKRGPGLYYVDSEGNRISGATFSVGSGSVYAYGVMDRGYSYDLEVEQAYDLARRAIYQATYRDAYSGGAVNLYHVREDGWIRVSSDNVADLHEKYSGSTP

Target: T1, proteasome in VA-13 cells (Homo sapiens, UniProt P28074)
T1 construct: endogenous in cells; host or cells: VA-13 (SV40-transformed human fibroblasts)
Experiment: Chymotrypsin-like proteasome activity in intact VA-13 cells
Assay type: cell-based
Conditions: 25 μM, 24 h
Method: VA-13 or WI-38 cells were grown in 24 well plates (2 ml/well) to 70-80% confluency, followed by 24 h treatment with […] (−)-EGCG, 2, or 2a. […] Suc-Leu-Leu-Val-Tyr-AMC substrate was then added for 2.5 h at 37° C. and the chyrnotrypsin-like activity was measured as described above. Alternatively, cells were treated with each compound at 25 μM for 4 or 24 h, and harvested and lysed. Suc-Leu-Leu-Val-Tyr-AMC (40 μM) was then incubated with the prepared cell lysates for 2.5 h and the chymotrypsin-like activity was measured as described above.
The ability to induce apoptosis in tumor cells, but not normal cells is an important measure for novel anti-cancer drugs. To determine whether the protected compounds also affect normal cells, both VA-13 and WI-38 cells were treated with 25 μM of (−)-EGCG, 2, or 2a for 24 h and examined proteasome activity, nuclear morphological changes, and detachment. A differential decrease was found in the chyrnotrypsin-like activity of the proteasome in VA-13 cells over normal WI-38 cells (FIG. 12A). […] Conversely, the proteasome activity in WI-38 cells was decreased by only −5% with all three polyphenol treatments.

Structure (SMILES)	decrease in proteasome chymotrypsin-like activity
O=C(O[C@@H]1Cc2c(O)cc(O)cc2O[C@H]1c1cc(O)c(O)c(O)c1)c1cccc(O)c1 (relative stereo) [Compound 2, (2S*,3R*)-trans-5,7-Bis(hydroxy)-2-[3,4,5-tris(hydroxy)phenyl]chroman-3-yl 3-(hydroxy)benzoate]	42-48%
O=C(O[C@@H]1Cc2c(O)cc(O)cc2O[C@@H]1c1cc(O)c(O)c(O)c1)c1cc(O)c(O)c(O)c1 [(−)-EGCG, (−)-epigallocatechin-3-gallate, reference compound]	42-48%
